# Some of the results follow. Further columns of the screen follow, without active or inactive calls. Most of these compounds were active or inconclusive in the main read-out, so they are no random draw. The note in brackets gives the kind of curve behind each potency; many fits are weak.
# Experiment: qHTS Assay for Lipid Storage Modulators in Drosophila S3 Cells;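 as to cell number change: cells counted by Cell Tracker Red CMTPX staining in the red channel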
# Details: BODIPY lipid droplet fluorescence, 18-24 h; for cell number change: measured here: cell count max response, cells fed with added oleic acid
# Method in brief: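 Drosophila S3 cells got compounds at several concentrations plus oleic acid (400 uM solution). Laser-scanning cytometry with 488 nm excitation read lipid droplets at 500-530 nm and cells at 575-640 nm. Percent activity was relative to 20 uM Triacsin C.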
# [1] = measured here: cell number channel AC50, cells fed with added oleic acid
# [2] = measured here: lipid fluorescence (Fed channel) AC50, cells fed with added oleic acid
SMILES,cell number change,AC50 [1],AC50 [2]
COc1ccc(-n2sc3ccc(F)cc3c2=O)cc1,-85.2%,"4610 nM [falling, full curve]",–
CC1(C)CC2(CC(c3ccccc3)c3ccc(O)cc3O2)NC(=S)N1 (stereo not given),-16.1%,–,"92 nM [falling, full curve, poor fit]"
COc1cc2cc(CCCOC(=O)CCCC(=O)O)oc(=O)c2cc1OC,-6.1%,–,"103 nM [rising, single point]"
COc1ccc(OC)c(C2CC(=O)N3CN(c4ccccc4F)CSC3=C2C#N)c1 (stereo not given),-52.5%,"25900 nM [falling, partial curve]","29100 nM [falling, single point]"
Cc1ccc(C(=O)CCc2ccc(N)cc2)cc1,19.9%,–,"103 nM [rising, full curve, poor fit]"
Clc1ccc(C2CC(c3cccs3)n3ncnc3N2)cc1Cl (stereo not given),49.8%,"20600 nM [rising, single point]",–
Cc1ccc(C(=O)COC(=O)C2CCC2)cc1,–,"1160 nM [rising, partial curve]",–
O=Cc1ccc(OCCN2CCCC2=O)cc1,3.17%,–,"29100 nM [rising, single point]"
Cc1ccc(NS(=O)(=O)c2ccc(Cl)nc2)c(C)c1,16.1%,–,–
CN(C)Cc1cc(CN(C)C)c(O)c(CCc2ccccc2)n1,0.806%,–,"4610 nM [falling, full curve, poor fit]"
O=C1C(=Nc2cccc(Cl)c2)CC(c2ccc(Cl)cc2)N1c1cccc(Cl)c1 (stereo not given),–,"1160 nM [rising, partial curve]","2060 nM [rising, full curve, poor fit]"
O=C(Cn1cc(C(F)(F)F)ccc1=O)N/N=C/c1ccccc1O,-10.4%,–,–
CN(C)CCCC(=O)c1ccc2c(c1)OCO2,-24.2%,"20.6 nM [falling, full curve, poor fit]","920 nM [falling, full curve]"
CN(C)S(=O)(=O)c1ccc(N2CCCC2)c(C(=O)NCc2cccc(C(F)(F)F)c2)c1,7.06%,–,"130 nM [falling, full curve, poor fit]"
Cc1ccc(Cl)cc1N1CCN(C(=O)C2CCN(S(C)(=O)=O)CC2)CC1,47%,"4110 nM [rising, full curve]",–
Cc1nc([N+](=O)[O-])c(N2CCN(Cc3ccccc3)CC2)n1Cc1ccccc1,-2.8%,–,–
Cc1cc(C)cc(N(CC(=O)Nc2cccc(C)c2C)S(=O)(=O)c2c(C)[nH]c(=O)[nH]c2=O)c1,–,–,"29100 nM [rising, single point]"
CN(C)/C=C/C(=O)c1cccc([N+](=O)[O-])c1,–,"4.61 nM [falling, full curve, poor fit]","5.8 nM [falling, full curve, poor fit]"
COc1ccc(-c2ccc3c(N)c(C(=O)NC(C)C)sc3n2)cc1OC,-7.72%,–,–
CCOc1ccc2nc(N3CCC(C(=O)NC4CCCCC4)CC3)sc2c1,1.73%,"366 nM [rising, partial curve, poor fit]",–
COCCN(C(=S)Nc1ccc(C(C)C)cc1)C(C)c1cccs1 (stereo not given),9.5%,–,"20600 nM [rising, single point]"

SMILES,cell number change,AC50 [1],AC50 [2]
CC(C)Oc1ccc(CNC(=O)c2ccc3nc(N4CCOCC4)sc3c2)cc1,15.9%,–,–
O=C(Cn1c(=O)[nH]c2ccccc2c1=O)N1CCN(Cc2ccc3c(c2)OCO3)CC1,15.7%,–,"29100 nM [rising, single point]"
O=[N+]([O-])c1cc([N+](=O)[O-])c(Oc2cc(Cl)ccc2Cl)cc1NC1CCCCCCC1,2.1%,–,"6510 nM [falling, single point]"
Cc1c(C(=O)NC(=S)NCC(C)C)oc2ccccc12,4.19%,–,–
CC1CC(C)(C)NC(=S)N1CCCC(=O)Nc1ccc(Cl)cc1 (stereo not given),–,–,"5.8 nM [falling, full curve, poor fit]"
Cc1ccc2nc(SCC(=O)c3c[nH]c4ccccc34)[nH]c2c1,-4.14%,–,–
O=C(Cn1c(=O)oc2ccccc21)N1CCN(c2ccc(N3CCOCC3)nn2)CC1,12.4%,–,"580 nM [rising, full curve, poor fit]"
Cc1ccc(C(=O)NC(=S)NNC(=O)c2ccccc2O)cc1,-21.2%,–,–
O=C(OC1CCOC1=O)C1CCN(S(=O)(=O)c2c(Cl)cccc2Cl)CC1 (stereo not given),39%,"23100 nM [rising, single point]",–
CC1CCCC(n2c(=S)[nH]c3ccccc3c2=O)C1C (stereo not given),-48%,"29100 nM [falling, single point]",–
CC(=O)c1cc2c(cc1NC(=O)Cn1nc(C)c(C)c(C#N)c1=O)OCO2,35.3%,"116 nM [rising, full curve, poor fit]","1460 nM [rising, full curve]"
O=C(Nc1nnc(-c2cccs2)o1)c1cccc(Oc2ccccc2)c1,–,"164 nM [falling, partial curve]","6510 nM [rising, partial curve]"
CCO[C@H]1OC(C(=O)N2CCN(Cc3ccc4c(c3)OCO4)CC2)=C[C@@H](C(C)(C)C)[C@@H]1CCCO,-14.1%,–,"29100 nM [falling, single point]"
COc1ccc(C2C(C#N)=C(N)OC3=C2C(=O)CCC3)c(OC)c1OC (stereo not given),-5.74%,–,–
O=C(Nc1ccc2oc(-c3cccc4ccccc34)nc2c1)c1ncn[nH]1,–,"1840 nM [rising, partial curve, poor fit]",–
COc1ccc(/C=C2\SC(=NCc3ccccc3)N(Cc3ccccc3)C2=O)cc1OC,–,–,"291 nM [rising, partial curve, poor fit]"
Fc1ccc(CNCCC(Cc2ccccc2)c2ccco2)cc1 (stereo not given),-18.6%,–,"2310 nM [rising, partial curve]"
C=CCNC(=O)c1cn(CC)c2cc(N3CCN(C(=O)c4ccco4)CC3)c(F)cc2c1=O,8.78%,–,"16400 nM [falling, single point]"
COc1ccccc1/C=C/C(=O)N1CCOCC1,–,–,"146 nM [rising, full curve, poor fit]"
Cc1cccc(-n2ncc3c(NCCN4CCOCC4)ncnc32)c1,-18.6%,"820 nM [falling, full curve, poor fit]","731 nM [falling, full curve]"
COc1ccc(/C=N/NC(=O)c2c(C)nnn2-c2nonc2N)cc1OC,1.1%,–,–

# Quoted from the listing.
# `CN(C)CCCC(=O)c1ccc2c(c1)OCO2` | AC50 [2]: 920 nM [falling, full curve]
# `Fc1ccc(CNCCC(Cc2ccccc2)c2ccco2)cc1` (stereo not given) | AC50 [2]: 2310 nM [rising, partial curve]

# (list continues)

SMILES,cell number change,AC50 [1],AC50 [2]
Cc1ccc(S(=O)(=O)N(C)C)cc1NC(=O)c1cc(S(=O)(=O)N2CCCCC2)ccc1N1CCOCC1,94.5%,"23100 nM [rising, single point]",–
CCC1=NN(C(=O)c2ccccc2O)C(O)(c2ccccc2)C1 (stereo not given),-17.3%,–,–
CCCCCCC1/C(=N/O)CCC1C(=O)OC (stereo not given),165%,"29100 nM [rising, single point]","6510 nM [rising, partial curve, poor fit]"
O=C1CC(c2ccc(S(=O)(=O)N3CCCCC3)cc2)CN1 (stereo not given),5.61%,–,–
COc1ccc(CNC(=O)CSc2nnc(C(F)(F)F)n2C)cc1,1.7%,"7310 nM [falling, single point]","6510 nM [falling, single point]"
CCN(C(=O)CSc1nnc(SC(C)C)s1)C1CCS(=O)(=O)C1 (stereo not given),-4.84%,–,"4110 nM [rising, partial curve, poor fit]"
COc1ccc2c(=O)c(-c3cnn(-c4ccccc4)c3)c(C)oc2c1,-6.74%,"731 nM [falling, partial curve, poor fit]",–
Cc1c(OC(C)C(=O)NCC(O)c2ccccc2)ccc2c3c(c(=O)oc12)CCC3 (stereo not given),-12.6%,"6510 nM [falling, single point]",–
Cc1cc(C)c2oc(C(=O)N(Cc3ccc(F)cc3)C3CCS(=O)(=O)C3)cc(=O)c2c1 (stereo not given),-36.3%,–,"29100 nM [falling, single point]"
Cc1ccc(NS(=O)(=O)c2cccc(C(=O)OCC(=O)NCc3ccco3)c2)cc1,0.535%,–,"326 nM [rising, full curve]"
COc1ccccc1CN(CC(=O)NCc1ccc(F)cc1)C(=O)c1csnn1,-12.1%,–,–
Cc1nc(SCC(=O)Nc2cccnc2Cl)nc(C)c1C,38.4%,–,–
C/C(N)=C(/C#N)C(=O)CSc1nnc(Nc2ccccc2)s1,7.11%,"6510 nM [falling, single point]","65.1 nM [rising, full curve, poor fit]"
Cc1cccc(CN2CCC(C(=O)Nc3ccc(-n4nc(C)cc4C)cc3)CC2)n1,17.3%,–,"580 nM [rising, single point]"
COc1cccc(CC(=O)Nc2cc(S(=O)(=O)N3CCOCC3)ccc2OC)c1,108%,"10300 nM [rising, partial curve]",–
O=C(CSc1nc(O)cc(=O)[nH]1)N1c2ccccc2Sc2ccccc21,12.7%,–,"1300 nM [rising, full curve, poor fit]"
COc1ccccc1Nc1ccc2nonc2c1[N+](=O)[O-],-18.8%,–,"206 nM [falling, single point]"
COC(=O)c1ccc(N2CCN(S(=O)(=O)c3ccccc3)CC2)c([N+](=O)[O-])c1,–,–,"2310 nM [rising, single point]"
CCOC(=O)c1ccc(NS(=O)(=O)c2cc(C)ccc2OC)cc1,-34.2%,"16400 nM [falling, single point]","1030 nM [rising, partial curve]"
CC(C)CC(=O)NNC(=O)C(C)C,2.52%,–,–

# From PubChem BioAssay AID2685 (National Center for Advancing Translational Sciences (NCATS), 2010)
